Laboratory results from paper PMC6105673.
Results are given in words; binding and its absence hold for the method and conditions named. In cells and extracts the contact can be indirect. Some entries that bind do so weakly or less than the wild type.

Target: HIF-2αOH WT peptide (523-542), synthetically hydroxylated (human)
Assay: pull-down; biotinylated peptide on streptavidin agarose incubated with HIS6-PHD2 (αKG, ascorbate, FeCl2) for 1 h at room temperature, washed, then IVTT HA-VHL30 under stringent buffer conditions; anti-HA blot; only the target purified

HA-VHL30, in vitro transcribed and translated (IVTT) pVHL (from UniProt P40337-1 1-213)
binding: binds
